# Paper PMC11130292
# Amino acid sequences for entries named in this document (tags omitted).
# UniProt Q8IYM9: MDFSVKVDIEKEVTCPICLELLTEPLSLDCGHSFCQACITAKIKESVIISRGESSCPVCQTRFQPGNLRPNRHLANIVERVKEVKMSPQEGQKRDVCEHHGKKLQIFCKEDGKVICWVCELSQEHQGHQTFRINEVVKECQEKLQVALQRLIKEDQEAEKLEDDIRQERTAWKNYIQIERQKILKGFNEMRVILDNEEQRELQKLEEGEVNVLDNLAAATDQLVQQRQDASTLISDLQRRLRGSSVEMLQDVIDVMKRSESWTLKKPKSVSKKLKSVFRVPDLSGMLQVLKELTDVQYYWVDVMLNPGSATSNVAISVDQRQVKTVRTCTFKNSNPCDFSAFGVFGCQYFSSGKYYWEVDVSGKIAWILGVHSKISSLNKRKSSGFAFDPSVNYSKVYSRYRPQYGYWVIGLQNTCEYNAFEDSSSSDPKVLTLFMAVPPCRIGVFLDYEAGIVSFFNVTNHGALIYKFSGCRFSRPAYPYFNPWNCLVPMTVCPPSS
# UniProt P19474: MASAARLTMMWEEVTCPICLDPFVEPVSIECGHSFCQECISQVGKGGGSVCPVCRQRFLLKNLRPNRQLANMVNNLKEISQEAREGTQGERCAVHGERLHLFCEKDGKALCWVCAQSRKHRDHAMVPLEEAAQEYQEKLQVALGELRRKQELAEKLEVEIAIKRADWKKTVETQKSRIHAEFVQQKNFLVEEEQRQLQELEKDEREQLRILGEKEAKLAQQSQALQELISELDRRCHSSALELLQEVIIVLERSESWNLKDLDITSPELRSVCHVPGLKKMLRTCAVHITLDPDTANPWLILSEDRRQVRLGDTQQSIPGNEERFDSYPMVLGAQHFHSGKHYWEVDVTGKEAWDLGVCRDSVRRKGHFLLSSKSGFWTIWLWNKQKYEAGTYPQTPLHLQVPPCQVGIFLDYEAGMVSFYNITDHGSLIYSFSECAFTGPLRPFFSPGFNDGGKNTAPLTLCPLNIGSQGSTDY
# UniProt Q93009: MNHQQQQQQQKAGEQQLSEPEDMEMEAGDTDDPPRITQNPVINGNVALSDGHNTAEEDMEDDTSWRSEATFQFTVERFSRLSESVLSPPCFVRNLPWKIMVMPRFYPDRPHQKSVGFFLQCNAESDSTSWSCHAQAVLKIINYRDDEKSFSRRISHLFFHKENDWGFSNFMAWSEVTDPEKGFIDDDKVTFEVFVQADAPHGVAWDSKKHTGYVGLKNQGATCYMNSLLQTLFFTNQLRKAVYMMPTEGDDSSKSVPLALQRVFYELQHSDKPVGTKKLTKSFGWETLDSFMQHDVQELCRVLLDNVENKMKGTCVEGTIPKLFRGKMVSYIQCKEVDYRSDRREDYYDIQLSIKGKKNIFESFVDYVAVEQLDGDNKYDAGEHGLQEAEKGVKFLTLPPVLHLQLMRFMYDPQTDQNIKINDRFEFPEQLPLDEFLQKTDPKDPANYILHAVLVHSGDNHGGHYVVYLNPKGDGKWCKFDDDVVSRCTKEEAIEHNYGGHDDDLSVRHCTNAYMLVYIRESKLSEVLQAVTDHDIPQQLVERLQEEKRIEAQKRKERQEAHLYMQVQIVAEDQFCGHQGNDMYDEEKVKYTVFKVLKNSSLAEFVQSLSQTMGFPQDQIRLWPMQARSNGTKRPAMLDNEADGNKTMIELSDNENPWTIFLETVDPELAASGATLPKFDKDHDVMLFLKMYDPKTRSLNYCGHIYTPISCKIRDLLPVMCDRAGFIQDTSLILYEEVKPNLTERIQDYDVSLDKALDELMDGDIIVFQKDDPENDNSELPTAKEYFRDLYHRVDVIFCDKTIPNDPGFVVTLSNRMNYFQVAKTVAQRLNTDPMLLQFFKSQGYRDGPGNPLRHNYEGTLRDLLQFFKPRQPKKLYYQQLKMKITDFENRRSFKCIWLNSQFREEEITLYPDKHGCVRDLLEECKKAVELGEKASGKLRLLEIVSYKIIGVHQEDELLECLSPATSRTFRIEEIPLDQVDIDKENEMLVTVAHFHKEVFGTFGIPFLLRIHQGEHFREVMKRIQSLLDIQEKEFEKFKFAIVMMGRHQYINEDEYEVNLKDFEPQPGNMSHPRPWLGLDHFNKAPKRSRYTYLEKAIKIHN
# Results are given in words; binding and its absence hold for the method and conditions named. Binding seen in cells or lysates may run through a third protein. A yes stands for co-enrichment or nearness to the bait. Other partners may have been found.
# How the values were obtained:
# [1] = target: T1, IFRD1, bait of the immunoprecipitation-coupled mass spectrometry (IP-MS) (UniProt O00458); test: affinity purification with mass spectrometry; immunoprecipitation-coupled mass spectrometry (IP-MS) against IFRD1
# T1 sequence: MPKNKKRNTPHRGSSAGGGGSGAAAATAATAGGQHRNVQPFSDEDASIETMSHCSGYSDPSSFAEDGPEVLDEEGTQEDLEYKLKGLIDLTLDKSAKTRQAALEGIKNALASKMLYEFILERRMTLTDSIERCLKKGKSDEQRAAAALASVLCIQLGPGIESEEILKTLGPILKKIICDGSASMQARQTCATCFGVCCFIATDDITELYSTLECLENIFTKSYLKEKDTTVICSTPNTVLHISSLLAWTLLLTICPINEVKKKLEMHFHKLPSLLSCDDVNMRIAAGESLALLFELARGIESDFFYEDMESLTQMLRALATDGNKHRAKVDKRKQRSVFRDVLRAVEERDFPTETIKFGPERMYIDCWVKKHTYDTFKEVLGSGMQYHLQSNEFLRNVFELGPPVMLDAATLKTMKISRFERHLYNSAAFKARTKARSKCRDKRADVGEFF
# Flag-BirA* tagged p62 = Flag-BirA* tagged p62 (UniProt Q13501); test: proximity labelling; BioID2-p62 in PLC/PRF/5 cells, glutamine starvation 36 h, biotin (4 nM) for the last 24 h, Baf-A1 (400 nM) for 2 h; pull-down with streptavidin-conjugated beads
binding [1],binding (Flag-BirA* tagged p62),Substance
binds,,"TRIM22, hit of the IFRD1 IP-MS (from UniProt Q8IYM9 1-498)"
binds,,"TRIM21, hit of the IFRD1 IP-MS (from UniProt P19474 1-475)"
binds,,"USP7, hit of the IFRD1 IP-MS (from UniProt Q93009 1-1102)"
,binds,histone H1.0 in PLC/PRF/5 cells (from UniProt P07305 1-194)
